Experimental data as given in the supplement of paper PMC10849652.
Some of the results follow.

Chains of the proteins cited; added tags and fusions are not shown. Lines headed by an entry give the natural chain unless they say otherwise; changes in a name come on top.
UniProt Q86VQ3: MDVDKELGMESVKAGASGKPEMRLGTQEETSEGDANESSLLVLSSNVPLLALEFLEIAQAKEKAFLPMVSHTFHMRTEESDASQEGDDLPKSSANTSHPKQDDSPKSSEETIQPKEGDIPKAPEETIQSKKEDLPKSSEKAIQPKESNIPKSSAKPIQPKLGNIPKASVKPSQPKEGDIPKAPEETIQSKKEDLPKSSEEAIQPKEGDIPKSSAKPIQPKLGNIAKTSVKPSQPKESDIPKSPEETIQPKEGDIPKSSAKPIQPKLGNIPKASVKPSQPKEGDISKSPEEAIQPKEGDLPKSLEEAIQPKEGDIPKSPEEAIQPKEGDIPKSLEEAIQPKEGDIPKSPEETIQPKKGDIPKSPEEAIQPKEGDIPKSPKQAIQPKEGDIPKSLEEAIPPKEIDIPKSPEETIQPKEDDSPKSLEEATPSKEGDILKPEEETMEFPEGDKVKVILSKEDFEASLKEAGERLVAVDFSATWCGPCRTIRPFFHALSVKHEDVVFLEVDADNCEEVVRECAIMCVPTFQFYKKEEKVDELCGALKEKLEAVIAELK
UniProt P0CG48, whole entry, looked up: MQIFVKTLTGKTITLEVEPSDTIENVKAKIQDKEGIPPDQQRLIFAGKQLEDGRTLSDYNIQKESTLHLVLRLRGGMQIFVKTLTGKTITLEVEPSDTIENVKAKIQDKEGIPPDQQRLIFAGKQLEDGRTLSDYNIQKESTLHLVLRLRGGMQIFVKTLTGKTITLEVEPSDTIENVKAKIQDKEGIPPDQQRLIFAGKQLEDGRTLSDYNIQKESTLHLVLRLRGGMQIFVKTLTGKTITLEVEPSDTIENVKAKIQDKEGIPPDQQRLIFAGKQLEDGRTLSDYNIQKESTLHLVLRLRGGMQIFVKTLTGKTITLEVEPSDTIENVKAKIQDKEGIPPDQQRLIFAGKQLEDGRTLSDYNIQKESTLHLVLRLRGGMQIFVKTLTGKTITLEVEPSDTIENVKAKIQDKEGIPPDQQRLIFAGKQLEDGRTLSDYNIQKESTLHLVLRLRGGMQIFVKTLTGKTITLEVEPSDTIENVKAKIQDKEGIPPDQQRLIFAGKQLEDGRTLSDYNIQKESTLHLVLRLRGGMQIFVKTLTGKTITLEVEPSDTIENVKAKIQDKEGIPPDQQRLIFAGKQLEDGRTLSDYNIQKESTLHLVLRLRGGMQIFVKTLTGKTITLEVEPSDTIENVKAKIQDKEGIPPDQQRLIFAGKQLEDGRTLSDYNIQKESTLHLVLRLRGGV
UniProt Q8N2K1: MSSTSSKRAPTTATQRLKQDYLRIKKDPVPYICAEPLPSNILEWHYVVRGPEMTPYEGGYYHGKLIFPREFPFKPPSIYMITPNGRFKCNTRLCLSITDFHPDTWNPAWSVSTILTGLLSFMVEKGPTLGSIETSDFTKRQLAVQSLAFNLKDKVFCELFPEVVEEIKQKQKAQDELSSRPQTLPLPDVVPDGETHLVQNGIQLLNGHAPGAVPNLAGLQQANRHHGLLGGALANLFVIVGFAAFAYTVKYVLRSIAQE
UniProt Q6PKC3: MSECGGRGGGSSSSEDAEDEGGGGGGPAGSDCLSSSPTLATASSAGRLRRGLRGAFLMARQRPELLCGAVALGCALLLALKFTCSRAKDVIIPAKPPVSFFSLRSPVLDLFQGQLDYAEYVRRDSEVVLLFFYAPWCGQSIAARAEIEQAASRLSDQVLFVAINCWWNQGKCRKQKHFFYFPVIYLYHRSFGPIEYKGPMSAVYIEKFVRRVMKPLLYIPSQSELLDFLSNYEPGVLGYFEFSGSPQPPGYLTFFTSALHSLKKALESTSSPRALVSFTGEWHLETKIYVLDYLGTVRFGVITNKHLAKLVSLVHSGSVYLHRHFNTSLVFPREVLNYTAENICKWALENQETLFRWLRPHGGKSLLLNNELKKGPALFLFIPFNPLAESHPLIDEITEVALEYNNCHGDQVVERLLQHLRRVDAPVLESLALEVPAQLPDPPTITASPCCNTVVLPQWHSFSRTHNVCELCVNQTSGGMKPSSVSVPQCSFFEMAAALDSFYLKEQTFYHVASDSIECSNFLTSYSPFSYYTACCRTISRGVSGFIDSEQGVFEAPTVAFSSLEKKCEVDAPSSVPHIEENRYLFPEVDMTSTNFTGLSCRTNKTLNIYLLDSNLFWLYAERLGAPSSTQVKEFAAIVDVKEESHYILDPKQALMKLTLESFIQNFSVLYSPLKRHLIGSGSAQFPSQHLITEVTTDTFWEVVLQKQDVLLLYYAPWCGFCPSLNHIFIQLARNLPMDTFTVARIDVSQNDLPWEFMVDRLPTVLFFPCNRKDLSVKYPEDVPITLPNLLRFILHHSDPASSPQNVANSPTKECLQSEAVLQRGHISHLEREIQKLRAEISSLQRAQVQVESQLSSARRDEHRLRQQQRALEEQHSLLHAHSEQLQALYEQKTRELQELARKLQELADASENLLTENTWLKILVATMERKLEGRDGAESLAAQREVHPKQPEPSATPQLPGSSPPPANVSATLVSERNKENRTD
UniProt Q9NX01: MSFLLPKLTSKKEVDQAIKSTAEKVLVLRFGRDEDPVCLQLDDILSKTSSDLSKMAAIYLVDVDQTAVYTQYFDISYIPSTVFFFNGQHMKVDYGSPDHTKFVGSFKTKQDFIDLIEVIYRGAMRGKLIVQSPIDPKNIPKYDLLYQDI
UniProt Q9UJT1: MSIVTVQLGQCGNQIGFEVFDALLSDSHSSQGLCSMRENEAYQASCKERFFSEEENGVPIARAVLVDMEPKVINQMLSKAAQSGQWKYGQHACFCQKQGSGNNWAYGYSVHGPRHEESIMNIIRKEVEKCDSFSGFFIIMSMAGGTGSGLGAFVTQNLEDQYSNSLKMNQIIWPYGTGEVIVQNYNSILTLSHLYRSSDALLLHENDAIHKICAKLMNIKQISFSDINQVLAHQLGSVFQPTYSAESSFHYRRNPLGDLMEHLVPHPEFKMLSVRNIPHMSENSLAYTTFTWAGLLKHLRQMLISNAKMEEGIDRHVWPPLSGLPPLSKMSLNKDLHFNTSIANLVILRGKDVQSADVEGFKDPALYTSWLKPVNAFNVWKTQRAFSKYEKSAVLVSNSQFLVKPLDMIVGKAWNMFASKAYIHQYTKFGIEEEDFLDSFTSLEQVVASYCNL
UniProt Q06418: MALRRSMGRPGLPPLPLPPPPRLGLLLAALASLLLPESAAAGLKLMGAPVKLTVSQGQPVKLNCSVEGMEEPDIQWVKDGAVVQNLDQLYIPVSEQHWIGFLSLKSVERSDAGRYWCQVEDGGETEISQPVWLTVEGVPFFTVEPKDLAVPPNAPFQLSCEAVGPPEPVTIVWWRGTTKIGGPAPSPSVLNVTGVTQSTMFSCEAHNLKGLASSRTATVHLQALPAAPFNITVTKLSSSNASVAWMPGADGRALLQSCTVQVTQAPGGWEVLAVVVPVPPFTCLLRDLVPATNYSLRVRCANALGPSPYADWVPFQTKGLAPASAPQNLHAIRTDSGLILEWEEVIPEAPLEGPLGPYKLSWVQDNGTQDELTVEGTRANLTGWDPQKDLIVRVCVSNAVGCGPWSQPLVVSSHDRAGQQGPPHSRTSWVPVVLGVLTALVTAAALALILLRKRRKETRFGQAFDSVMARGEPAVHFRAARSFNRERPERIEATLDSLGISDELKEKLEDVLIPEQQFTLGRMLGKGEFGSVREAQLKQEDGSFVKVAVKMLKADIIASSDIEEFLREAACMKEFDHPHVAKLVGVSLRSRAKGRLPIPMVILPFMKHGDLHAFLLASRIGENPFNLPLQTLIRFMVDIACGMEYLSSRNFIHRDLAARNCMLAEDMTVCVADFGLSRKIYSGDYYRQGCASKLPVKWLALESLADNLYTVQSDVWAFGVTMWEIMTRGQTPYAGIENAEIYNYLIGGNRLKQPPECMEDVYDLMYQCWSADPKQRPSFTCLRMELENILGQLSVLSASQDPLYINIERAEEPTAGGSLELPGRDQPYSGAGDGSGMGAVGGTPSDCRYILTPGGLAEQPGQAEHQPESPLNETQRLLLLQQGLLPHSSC
UniProt P33981: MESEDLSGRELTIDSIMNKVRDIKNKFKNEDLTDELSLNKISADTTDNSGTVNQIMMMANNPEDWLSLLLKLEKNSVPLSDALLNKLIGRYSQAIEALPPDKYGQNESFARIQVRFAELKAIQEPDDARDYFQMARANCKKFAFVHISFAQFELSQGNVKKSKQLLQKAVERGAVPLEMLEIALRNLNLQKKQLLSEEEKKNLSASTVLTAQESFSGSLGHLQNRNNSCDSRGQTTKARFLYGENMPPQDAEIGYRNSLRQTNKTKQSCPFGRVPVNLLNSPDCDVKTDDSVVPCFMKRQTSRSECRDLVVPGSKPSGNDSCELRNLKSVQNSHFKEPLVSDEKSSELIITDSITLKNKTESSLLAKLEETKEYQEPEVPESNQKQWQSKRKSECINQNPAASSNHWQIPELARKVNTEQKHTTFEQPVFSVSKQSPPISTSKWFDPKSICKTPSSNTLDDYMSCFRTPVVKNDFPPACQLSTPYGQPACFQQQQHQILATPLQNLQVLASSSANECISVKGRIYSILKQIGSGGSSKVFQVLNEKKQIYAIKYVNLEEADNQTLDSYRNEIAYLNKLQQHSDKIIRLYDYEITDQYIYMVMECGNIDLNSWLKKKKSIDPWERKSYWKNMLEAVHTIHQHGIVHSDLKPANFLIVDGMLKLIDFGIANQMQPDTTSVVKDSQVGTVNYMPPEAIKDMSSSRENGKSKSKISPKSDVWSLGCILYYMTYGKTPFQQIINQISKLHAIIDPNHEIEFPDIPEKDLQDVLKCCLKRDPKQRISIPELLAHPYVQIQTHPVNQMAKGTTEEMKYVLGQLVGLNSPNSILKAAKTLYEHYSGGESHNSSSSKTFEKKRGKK
UniProt Q96CW5, whole entry, looked up: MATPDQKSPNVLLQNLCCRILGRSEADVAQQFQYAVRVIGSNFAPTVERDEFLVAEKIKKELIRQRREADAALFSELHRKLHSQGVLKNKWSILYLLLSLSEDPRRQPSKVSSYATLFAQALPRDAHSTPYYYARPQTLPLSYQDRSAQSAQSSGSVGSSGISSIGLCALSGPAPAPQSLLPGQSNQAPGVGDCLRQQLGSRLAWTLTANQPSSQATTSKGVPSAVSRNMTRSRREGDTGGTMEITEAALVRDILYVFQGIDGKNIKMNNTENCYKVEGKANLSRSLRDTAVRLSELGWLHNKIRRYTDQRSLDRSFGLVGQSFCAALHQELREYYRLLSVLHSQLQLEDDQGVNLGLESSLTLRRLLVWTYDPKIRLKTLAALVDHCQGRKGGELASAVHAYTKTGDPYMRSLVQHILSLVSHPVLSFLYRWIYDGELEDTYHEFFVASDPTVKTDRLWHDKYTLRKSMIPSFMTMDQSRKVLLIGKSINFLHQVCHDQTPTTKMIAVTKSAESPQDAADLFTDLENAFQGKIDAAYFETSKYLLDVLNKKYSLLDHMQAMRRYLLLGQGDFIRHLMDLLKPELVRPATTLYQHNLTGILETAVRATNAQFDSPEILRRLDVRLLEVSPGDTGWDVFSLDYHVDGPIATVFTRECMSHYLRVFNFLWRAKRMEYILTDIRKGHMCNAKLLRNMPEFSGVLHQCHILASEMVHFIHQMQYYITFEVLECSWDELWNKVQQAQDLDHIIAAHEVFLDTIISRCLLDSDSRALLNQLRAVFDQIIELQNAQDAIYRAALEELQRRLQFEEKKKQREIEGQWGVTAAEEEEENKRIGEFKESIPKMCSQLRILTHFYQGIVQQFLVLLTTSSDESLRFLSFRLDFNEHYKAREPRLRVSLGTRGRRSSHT
UniProt O75896: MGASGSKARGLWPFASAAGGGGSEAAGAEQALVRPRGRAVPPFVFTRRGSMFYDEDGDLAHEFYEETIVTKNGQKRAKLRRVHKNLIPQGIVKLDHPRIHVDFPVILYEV
UniProt Q9H892: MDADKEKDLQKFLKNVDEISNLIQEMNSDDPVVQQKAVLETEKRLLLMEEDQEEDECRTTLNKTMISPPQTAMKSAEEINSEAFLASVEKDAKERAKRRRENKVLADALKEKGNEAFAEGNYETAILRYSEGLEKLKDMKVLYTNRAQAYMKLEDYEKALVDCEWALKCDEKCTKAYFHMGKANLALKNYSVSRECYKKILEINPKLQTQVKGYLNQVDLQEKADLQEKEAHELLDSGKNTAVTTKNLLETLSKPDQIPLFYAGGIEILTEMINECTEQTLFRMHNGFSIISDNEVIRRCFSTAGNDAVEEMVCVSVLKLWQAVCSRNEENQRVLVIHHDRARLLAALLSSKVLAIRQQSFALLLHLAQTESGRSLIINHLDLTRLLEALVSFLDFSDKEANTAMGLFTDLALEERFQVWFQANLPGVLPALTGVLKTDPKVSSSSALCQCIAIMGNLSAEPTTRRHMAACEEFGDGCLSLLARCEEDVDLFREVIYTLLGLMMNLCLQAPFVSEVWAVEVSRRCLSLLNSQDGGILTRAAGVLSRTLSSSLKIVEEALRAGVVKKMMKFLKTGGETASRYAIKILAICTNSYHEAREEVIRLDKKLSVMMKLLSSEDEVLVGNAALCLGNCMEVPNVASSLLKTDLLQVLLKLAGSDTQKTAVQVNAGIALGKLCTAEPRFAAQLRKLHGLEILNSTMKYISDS

Tests used:
Assay in all cases: log2 fold change, soluble protein after heating vs DMSO (PISA); higher = thermal stabilisation; K562 cells, 10 uM, 30 min; active = over 0.2 and 3.5 SD of the protein, either way, in both replicates (recomputed)
[1] = compound: CC[C@@H]1C(=O)N(C)c2cnc(Nc3ccc(C(=O)NC4CCN(C)CC4)cc3OC)nc2N1C1CCCC1
Procedure, shortened: (§1)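 K562 cells at 2×10^6 cells/mL were treated for 30 min with 10 μM compound, and aliquots were heated for 3 min over 48°C-58°C before pooling. Extraction used PBS with 0.5% NP-40 at 4°C, and soluble protein was the supernatant after 21,000xg for 90 min, measured by TMTpro 16plex LC-MS/MS with channel sums equalised. Thermal stability values, relative to control samples and from duplicates, are log2 fold changes.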

volasertib = compound: CC[C@@H]1C(=O)N(C)c2cnc(Nc3ccc(C(=O)N[C@H]4CC[C@H](N5CCN(CC6CC6)CC5)CC4)cc3OC)nc2N1C(C)C [volasertib]
Procedure, shortened: as §1

epoxomicin = compound: CC[C@H](C)[C@@H](C(=O)N[C@@H]([C@@H](C)O)C(=O)N[C@@H](CC(C)C)C(=O)[C@]1(CO1)C)NC(=O)[C@H]([C@@H](C)CC)N(C)C(=O)C [epoxomicin]
Procedure, shortened: as §1

[2] = compound: CCn1cc(-c2ccnc3[nH]c(-c4cccc(CN(C)C)c4)cc23)c(-c2ccc(NC(=O)N(C)C)cc2)n1
Procedure, shortened: as §1

[3] = compound: CN(C)CC(=O)Nc1ccc2[nH]c(=O)c3ccccc3c2c1
Procedure, shortened: as §1

[4] = compound: CN1CCC(CNc2ccc3ncc(-c4cccc(OC(F)(F)F)c4)n3n2)CC1
Procedure, shortened: as §1

sotrastaurin = compound: CN1CCN(c2nc(C3=C(c4c[nH]c5ccccc45)C(=O)NC3=O)c3ccccc3n2)CC1 [sotrastaurin]
Procedure, shortened: as §1

Tubastatin A = compound: CN1CCc2c(c3ccccc3n2Cc2ccc(C(=O)NO)cc2)C1 [Tubastatin A]
Procedure, shortened: as §1

[5] = compound: CNC(=O)C1=CC=CC=C1NC2=NC(=NC=C2Cl)NC3=C(C=C(C=C3)N4CCOCC4)OC
Procedure, shortened: as §1

defactinib = compound: CNC(=O)c1ccc(Nc2ncc(C(F)(F)F)c(NCc3nccnc3N(C)S(C)(=O)=O)n2)cc1 [defactinib]
Procedure, shortened: as §1

rucaparib = compound: CNCc1ccc(-c2[nH]c3cc(F)cc4c3c2CCNC4=O)cc1 [rucaparib]
Procedure, shortened: as §1

encorafenib = compound: COC(=O)N[C@@H](C)CNc1nccc(-c2cn(C(C)C)nc2-c2cc(Cl)cc(NS(C)(=O)=O)c2F)n1 [encorafenib]
Procedure, shortened: as §1

[6] = compound: COC(=O)[C@H](CCSC)NC(=O)C1=C(C=C(C=C1)NC[C@H](CS)N)C2=CC=CC=C2
Procedure, shortened: as §1

[7] = compound: CC[C@H](C)N1C=C(C2=C(C=C(C=C21)C3=CN=C(C=C3)N4CCNCC4)C(=O)NCC5=C(C=C(NC5=O)C)C)C
Procedure, shortened: as §1

rosiglitazone = compound: CN(CCOC1=CC=C(C=C1)C[C@H]2C(=O)NC(=O)S2)C3=CC=CC=N3 (racemic) [rosiglitazone]
Procedure, shortened: as §1

[8] = compound: CN1C2=C(C3=C1C(=O)N(N=C3)CC4=CC(=CC=C4)N)SC(=C2)S(=O)C
Procedure, shortened: as §1

saracatinib = compound: CN1CCN(CCOc2cc(OC3CCOCC3)c3c(Nc4c(Cl)ccc5c4OCO5)ncnc3c2)CC1 [saracatinib]
Procedure, shortened: as §1

[9] = compound: CNc1nc(-c2ccc3c(N)n[nH]c3c2)cc(N2C[C@@H](C(=O)NC3CCCCC3)CC[C@H]2C)n1
Procedure, shortened: as §1

[10] = compound: CCn1c(C(=O)N(C2CC2)C2CC2)cc2c3c(ncn3C)c(Nc3cc(C)n(C)n3)nc21
Procedure, shortened: as §1

alvocidib = compound: CN1CC[C@H](c2c(O)cc(O)c3c(=O)cc(-c4ccccc4Cl)oc23)[C@H](O)C1 [alvocidib]
Procedure, shortened: as §1

Row | Target | log2 fold change [1] | log2 fold change (volasertib) | log2 fold change (epoxomicin) | log2 fold change [2] | log2 fold change [3] | log2 fold change [4] | log2 fold change (sotrastaurin) | log2 fold change (Tubastatin A) | log2 fold change [5] | log2 fold change (defactinib) | log2 fold change (rucaparib) | log2 fold change (encorafenib) | log2 fold change [6] | log2 fold change [7] | log2 fold change (rosiglitazone) | log2 fold change [8] | log2 fold change (saracatinib) | log2 fold change [9] | log2 fold change [10] | log2 fold change (alvocidib)
1 | UBA52 (UniProt P62987) | inactive: 0.227 | inactive: 0.572 | inactive: -0.29 | inactive: 0.351 | inactive: -0.256 | inactive: 0.369 | inactive: -0.029 | inactive: -0.004 | inactive: -0.008 | inactive: 0.221 | inactive: 0.421 | inactive: 0.152 | inactive: 0.08 | – | – | – | – | – | – | –
2 | TXNDC2 (UniProt Q86VQ3) | inactive: -0.203 | inactive: 0.071 | – | – | inactive: -0.03 | – | inactive: 0.048 | – | – | inactive: -0.013 | inactive: -0.033 | inactive: 0.097 | inactive: 0.079 | inactive: -0.138 | inactive: 0.094 | inactive: -0.061 | inactive: -0.041 | inactive: 0.042 | – | –
3 | UBC (UniProt P0CG48) | inactive: 0.065 | inactive: 0.087 | active: 0.401 | inactive: 0.024 | inactive: 0.003 | inactive: 0.158 | inactive: 0.042 | inactive: 0.252 | inactive: 0.002 | inactive: 0.031 | inactive: 0.053 | inactive: -0.124 | inactive: 0.005 | inactive: 0.015 | – | inactive: -0.023 | inactive: -0.106 | inactive: 0.017 | – | –
4 | UBE2J2 isoform 3 (UniProt Q8N2K1) | inactive: -0.07 | inactive: -0.157 | inactive: 0.254 | inactive: -0.418 | inactive: 0.04 | inactive: 0.122 | inactive: 0.044 | inactive: 0.091 | inactive: -0.114 | inactive: -0.061 | inactive: 0.081 | inactive: 0.014 | inactive: -0.053 | – | – | inactive: -0.055 | inactive: 0.07 | inactive: 0.055 | – | –
5 | TXNDC11 (UniProt Q6PKC3) | inactive: -0.027 | inactive: -0.303 | inactive: -0.041 | inactive: 0.017 | inactive: 0.009 | inactive: 0.113 | inactive: 0.009 | inactive: 0.067 | inactive: 0.005 | inactive: -0.009 | inactive: -0.083 | inactive: 0.038 | inactive: -0.028 | – | inactive: 0.019 | inactive: 0.041 | inactive: -0.053 | inactive: -0.022 | inactive: 0.023 | inactive: -0.057
6 | TUBB2B (UniProt Q9BVA1) | inactive: 0.044 | inactive: 0.023 | – | inactive: -0.047 | inactive: -0.073 | inactive: 0.057 | inactive: 0.06 | inactive: -0.062 | inactive: -0.048 | inactive: 0.026 | inactive: 0.022 | inactive: -0.04 | inactive: -0.158 | inactive: 0.056 | inactive: 0.042 | inactive: -0.268 | inactive: 0.013 | inactive: 0.087 | inactive: -0.025 | inactive: 0.172
7 | TXNL4B (UniProt Q9NX01) | inactive: 0.075 | inactive: -0.111 | – | inactive: -0.069 | inactive: 0.186 | inactive: -0.053 | inactive: 0.189 | inactive: 0.03 | inactive: 0.02 | inactive: -0.093 | inactive: 0.022 | inactive: -0.021 | inactive: -0.199 | inactive: -0.036 | – | inactive: 0.051 | inactive: -0.053 | inactive: -0.062 | – | –
8 | TUBA4A (UniProt C9JJQ8) | inactive: -0.115 | inactive: 0.099 | – | – | inactive: 0.09 | – | inactive: -0.084 | inactive: 0.147 | – | inactive: -0.215 | inactive: 0.186 | inactive: 0.078 | inactive: -0.055 | – | – | inactive: 0.114 | inactive: -0.148 | inactive: 0.131 | – | –
9 | TUBD1 (UniProt Q9UJT1) | – | inactive: -0.218 | – | – | – | – | inactive: 0.017 | – | – | – | – | – | – | – | – | – | – | – | – | –
10 | TYRO3 (UniProt Q06418) | – | – | inactive: 0.21 | – | – | – | inactive: 0.007 | – | – | – | – | – | – | inactive: 0.157 | inactive: 0.039 | – | – | – | – | –
11 | TYW5 (UniProt A2RUC4) | – | inactive: 0.276 | inactive: -0.092 | inactive: -0.011 | inactive: 0.092 | inactive: -0.061 | – | inactive: -0.219 | inactive: -0.201 | inactive: 0.073 | – | – | inactive: 0.194 | – | – | – | – | – | inactive: -0.088 | –
12 | TTK (UniProt P33981) | – | – | inactive: -0.138 | – | inactive: -0.079 | – | – | – | – | inactive: 0.201 | – | – | inactive: -0.021 | – | – | – | – | – | – | –
13 | TUBGCP3 (UniProt Q96CW5) | – | inactive: -0.171 | inactive: -0.144 | inactive: -0.006 | inactive: -0.018 | inactive: 0 | inactive: -0.072 | inactive: 0.109 | inactive: -0.192 | inactive: 0.006 | – | – | inactive: -0.058 | inactive: -0.202 | inactive: -0.066 | inactive: 0.158 | inactive: -0.13 | inactive: 0.097 | inactive: -0.208 | inactive: 0.04
14 | TYK2 (UniProt P29597) | – | inactive: -0.179 | – | – | – | – | inactive: 0.122 | – | – | – | – | – | – | – | inactive: -0.138 | inactive: 0.139 | inactive: -0.285 | inactive: 0.222 | – | –
15 | UBE2L6 (UniProt O14933) | – | – | – | – | – | – | – | – | inactive: 0.01 | – | – | – | – | – | – | – | – | – | inactive: -0.056 | –
16 | TUSC2 (UniProt O75896) | – | – | inactive: 0.21 | – | – | – | inactive: 0.003 | – | inactive: -0.136 | – | – | – | – | inactive: -0.056 | inactive: 0.019 | – | – | – | inactive: 0.002 | –
17 | TWNK (UniProt Q96RR1) | – | – | inactive: 0.064 | – | inactive: -0.027 | – | – | inactive: 0.164 | inactive: 0.031 | inactive: 0.184 | – | – | inactive: -0.001 | inactive: 0.069 | inactive: -0.047 | – | – | – | inactive: -0.032 | –
18 | TTC12 isoform 2 (UniProt Q9H892) | inactive: 0.408 | – | inactive: -0.276 | – | – | – | inactive: 0.14 | inactive: -0.03 | inactive: 0.006 | – | inactive: 0.13 | inactive: 0.102 | – | inactive: -0.146 | inactive: -0.115 | inactive: 0.258 | inactive: -0.354 | inactive: 0.013 | inactive: 0.028 | inactive: 0.206

For convenience, some entries already given:
Row | Target | log2 fold change [1] | log2 fold change (volasertib) | log2 fold change (epoxomicin) | log2 fold change [2] | log2 fold change [3] | log2 fold change [4] | log2 fold change (sotrastaurin) | log2 fold change (Tubastatin A) | log2 fold change [5] | log2 fold change (defactinib) | log2 fold change (rucaparib) | log2 fold change (encorafenib) | log2 fold change [6] | log2 fold change [7] | log2 fold change (rosiglitazone) | log2 fold change [8] | log2 fold change (saracatinib) | log2 fold change [9] | log2 fold change [10] | log2 fold change (alvocidib)
5 | TXNDC11 (UniProt Q6PKC3) | inactive: -0.027 | inactive: -0.303 | inactive: -0.041 | inactive: 0.017 | inactive: 0.009 | inactive: 0.113 | inactive: 0.009 | inactive: 0.067 | inactive: 0.005 | inactive: -0.009 | inactive: -0.083 | inactive: 0.038 | inactive: -0.028 | – | inactive: 0.019 | inactive: 0.041 | inactive: -0.053 | inactive: -0.022 | inactive: 0.023 | inactive: -0.057
6 | TUBB2B (UniProt Q9BVA1) | inactive: 0.044 | inactive: 0.023 | – | inactive: -0.047 | inactive: -0.073 | inactive: 0.057 | inactive: 0.06 | inactive: -0.062 | inactive: -0.048 | inactive: 0.026 | inactive: 0.022 | inactive: -0.04 | inactive: -0.158 | inactive: 0.056 | inactive: 0.042 | inactive: -0.268 | inactive: 0.013 | inactive: 0.087 | inactive: -0.025 | inactive: 0.172
